The numbers were not newly measured in patent US20250295156A1, “LOADED GRANULES, THEIR PROCESS OF PRODUCTION AND THEIR USES” (Evie SA, priority 2019, published 2025), which cites them from elsewhere.

For the series the following is noted: crystalline powder.

As for `C=C(C)[C@@H]1CCC(C)=C[C@H]1c1c(O)cc(CCCCC)cc1O` [isolates], the solubility in oil result (oil) is reported as “soluble in oil”. For the same molecule, the solubility in water entry (water) was “not in water”.
